In the supplement of paper PMC12819154, “High-throughput peptide-centric local stability assay extends protein–ligand identification to membrane proteins, tissues and bacteria” (Nature Structural & Molecular Biology, 2025):
This is one part of the list. Small differences around the control level are noise.

The chains behind the UniProt entries cited, without tags or fusion partners. Where a name states a change or a piece, a line headed by the entry shows the natural chain unless it says otherwise.
UniProt P05141: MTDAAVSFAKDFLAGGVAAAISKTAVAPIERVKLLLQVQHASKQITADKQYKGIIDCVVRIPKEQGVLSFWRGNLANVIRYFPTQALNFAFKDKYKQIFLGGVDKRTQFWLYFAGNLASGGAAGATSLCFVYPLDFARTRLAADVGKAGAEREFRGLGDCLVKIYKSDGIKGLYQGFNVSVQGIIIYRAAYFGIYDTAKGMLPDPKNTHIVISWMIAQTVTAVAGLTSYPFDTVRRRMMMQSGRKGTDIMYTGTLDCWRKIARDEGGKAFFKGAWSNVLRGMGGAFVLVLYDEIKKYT
UniProt P12036: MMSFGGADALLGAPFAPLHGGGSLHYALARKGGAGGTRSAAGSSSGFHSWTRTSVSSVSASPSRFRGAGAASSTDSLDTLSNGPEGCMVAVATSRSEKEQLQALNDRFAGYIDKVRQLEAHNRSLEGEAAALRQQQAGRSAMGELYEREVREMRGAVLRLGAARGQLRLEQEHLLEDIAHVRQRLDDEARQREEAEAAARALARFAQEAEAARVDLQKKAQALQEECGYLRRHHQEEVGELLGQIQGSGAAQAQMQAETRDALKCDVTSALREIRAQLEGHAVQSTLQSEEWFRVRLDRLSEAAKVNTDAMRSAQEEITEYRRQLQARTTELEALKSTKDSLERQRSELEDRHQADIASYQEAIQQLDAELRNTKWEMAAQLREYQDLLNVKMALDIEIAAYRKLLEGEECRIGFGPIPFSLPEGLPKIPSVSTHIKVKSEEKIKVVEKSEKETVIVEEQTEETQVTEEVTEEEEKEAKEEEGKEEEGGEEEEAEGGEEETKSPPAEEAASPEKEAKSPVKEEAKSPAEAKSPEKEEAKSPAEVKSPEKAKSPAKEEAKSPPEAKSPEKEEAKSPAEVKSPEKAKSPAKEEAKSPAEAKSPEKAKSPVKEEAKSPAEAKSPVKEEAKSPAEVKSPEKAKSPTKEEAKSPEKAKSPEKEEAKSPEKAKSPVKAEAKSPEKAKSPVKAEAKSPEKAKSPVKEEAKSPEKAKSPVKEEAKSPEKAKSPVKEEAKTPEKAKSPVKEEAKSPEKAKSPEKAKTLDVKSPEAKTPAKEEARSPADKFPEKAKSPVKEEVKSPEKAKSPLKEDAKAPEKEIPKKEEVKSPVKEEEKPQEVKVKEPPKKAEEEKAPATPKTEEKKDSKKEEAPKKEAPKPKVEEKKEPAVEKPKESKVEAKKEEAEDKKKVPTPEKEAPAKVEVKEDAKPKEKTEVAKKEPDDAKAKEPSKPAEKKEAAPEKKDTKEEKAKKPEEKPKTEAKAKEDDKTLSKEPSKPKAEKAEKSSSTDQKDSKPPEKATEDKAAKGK
UniProt P05166: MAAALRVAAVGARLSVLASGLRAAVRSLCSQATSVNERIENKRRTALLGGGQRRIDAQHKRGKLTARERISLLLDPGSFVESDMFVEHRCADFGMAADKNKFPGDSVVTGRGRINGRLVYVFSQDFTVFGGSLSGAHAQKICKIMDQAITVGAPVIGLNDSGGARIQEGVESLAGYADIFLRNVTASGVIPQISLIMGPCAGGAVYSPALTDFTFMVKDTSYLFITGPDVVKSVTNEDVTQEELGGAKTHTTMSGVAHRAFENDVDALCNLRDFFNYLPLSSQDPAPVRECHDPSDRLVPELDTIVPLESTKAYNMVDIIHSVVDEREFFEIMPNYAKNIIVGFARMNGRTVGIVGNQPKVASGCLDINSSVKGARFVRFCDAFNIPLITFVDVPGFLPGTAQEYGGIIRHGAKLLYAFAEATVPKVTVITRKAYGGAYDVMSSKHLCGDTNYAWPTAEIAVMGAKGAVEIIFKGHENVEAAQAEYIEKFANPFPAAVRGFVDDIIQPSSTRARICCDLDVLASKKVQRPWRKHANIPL
UniProt P0CG13, whole entry: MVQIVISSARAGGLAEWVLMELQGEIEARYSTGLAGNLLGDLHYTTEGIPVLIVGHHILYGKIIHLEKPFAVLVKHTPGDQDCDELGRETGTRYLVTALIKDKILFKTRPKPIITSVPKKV
UniProt P09382, whole entry: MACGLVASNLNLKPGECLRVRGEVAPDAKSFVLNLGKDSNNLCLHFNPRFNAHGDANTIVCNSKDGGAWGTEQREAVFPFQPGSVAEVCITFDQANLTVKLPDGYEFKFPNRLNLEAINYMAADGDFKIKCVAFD
UniProt P08237: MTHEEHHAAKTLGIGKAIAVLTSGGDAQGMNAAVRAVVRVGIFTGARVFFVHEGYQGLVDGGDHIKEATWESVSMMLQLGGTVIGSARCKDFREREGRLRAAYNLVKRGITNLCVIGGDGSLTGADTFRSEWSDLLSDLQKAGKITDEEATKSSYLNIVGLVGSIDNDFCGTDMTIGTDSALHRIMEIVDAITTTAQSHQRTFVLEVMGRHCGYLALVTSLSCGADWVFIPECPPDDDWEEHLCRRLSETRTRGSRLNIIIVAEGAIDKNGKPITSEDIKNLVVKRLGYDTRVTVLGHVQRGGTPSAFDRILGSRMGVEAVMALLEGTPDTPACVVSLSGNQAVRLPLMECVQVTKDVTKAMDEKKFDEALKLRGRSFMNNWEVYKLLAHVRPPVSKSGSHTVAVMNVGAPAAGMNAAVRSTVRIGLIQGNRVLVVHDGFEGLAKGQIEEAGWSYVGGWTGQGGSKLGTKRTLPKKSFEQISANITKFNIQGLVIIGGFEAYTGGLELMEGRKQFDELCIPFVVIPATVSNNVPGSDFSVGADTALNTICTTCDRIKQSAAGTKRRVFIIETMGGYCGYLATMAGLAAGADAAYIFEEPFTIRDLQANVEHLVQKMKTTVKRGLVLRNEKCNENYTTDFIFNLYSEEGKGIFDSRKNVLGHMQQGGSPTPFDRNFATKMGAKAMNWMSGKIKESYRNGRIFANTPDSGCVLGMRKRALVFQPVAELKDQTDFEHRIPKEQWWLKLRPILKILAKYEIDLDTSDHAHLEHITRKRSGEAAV
UniProt P07195, whole entry, looked up: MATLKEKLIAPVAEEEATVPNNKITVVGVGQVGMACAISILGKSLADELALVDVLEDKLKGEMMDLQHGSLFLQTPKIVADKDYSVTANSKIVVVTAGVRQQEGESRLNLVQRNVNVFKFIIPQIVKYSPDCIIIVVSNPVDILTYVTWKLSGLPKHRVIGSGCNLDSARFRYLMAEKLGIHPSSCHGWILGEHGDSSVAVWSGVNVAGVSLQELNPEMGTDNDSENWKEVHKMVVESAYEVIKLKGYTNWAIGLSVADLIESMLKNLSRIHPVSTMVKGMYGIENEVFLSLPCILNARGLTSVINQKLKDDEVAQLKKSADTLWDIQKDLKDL
UniProt P12318: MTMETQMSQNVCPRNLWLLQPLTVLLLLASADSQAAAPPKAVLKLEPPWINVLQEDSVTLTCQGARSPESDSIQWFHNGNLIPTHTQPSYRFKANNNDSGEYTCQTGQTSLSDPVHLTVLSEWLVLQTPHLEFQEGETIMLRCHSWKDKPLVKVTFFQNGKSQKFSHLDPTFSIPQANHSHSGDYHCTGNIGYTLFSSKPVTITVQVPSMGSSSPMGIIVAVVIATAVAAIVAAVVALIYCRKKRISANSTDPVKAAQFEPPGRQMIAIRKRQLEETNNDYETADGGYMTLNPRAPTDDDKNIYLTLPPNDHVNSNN
UniProt P08134, whole entry: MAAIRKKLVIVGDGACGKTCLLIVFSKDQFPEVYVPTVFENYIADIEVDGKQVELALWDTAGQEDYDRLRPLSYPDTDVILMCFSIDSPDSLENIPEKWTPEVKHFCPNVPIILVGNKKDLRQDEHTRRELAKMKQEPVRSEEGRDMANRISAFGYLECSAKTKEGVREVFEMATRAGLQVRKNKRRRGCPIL
UniProt P06730, whole entry: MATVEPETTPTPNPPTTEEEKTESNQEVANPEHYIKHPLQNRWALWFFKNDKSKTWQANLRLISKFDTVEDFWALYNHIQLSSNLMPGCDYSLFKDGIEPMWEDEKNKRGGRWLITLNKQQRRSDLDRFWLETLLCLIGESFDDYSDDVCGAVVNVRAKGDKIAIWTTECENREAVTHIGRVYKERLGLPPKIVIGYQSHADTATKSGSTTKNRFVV
UniProt P13056: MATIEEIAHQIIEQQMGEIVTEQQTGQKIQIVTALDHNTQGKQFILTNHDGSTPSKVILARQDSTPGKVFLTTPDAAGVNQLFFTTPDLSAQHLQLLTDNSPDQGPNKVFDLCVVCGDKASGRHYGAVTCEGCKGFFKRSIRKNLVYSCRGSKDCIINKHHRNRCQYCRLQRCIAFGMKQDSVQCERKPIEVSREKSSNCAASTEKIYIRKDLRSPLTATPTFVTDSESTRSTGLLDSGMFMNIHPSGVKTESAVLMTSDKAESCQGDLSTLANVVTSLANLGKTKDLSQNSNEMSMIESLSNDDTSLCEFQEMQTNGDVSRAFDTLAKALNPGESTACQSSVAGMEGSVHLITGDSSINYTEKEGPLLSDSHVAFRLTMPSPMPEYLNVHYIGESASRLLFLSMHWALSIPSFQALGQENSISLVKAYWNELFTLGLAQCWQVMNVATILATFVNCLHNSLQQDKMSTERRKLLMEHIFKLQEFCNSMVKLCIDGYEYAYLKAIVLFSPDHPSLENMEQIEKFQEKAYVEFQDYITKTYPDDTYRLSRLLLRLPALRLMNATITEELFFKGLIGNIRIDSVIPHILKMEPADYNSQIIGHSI
UniProt P12277: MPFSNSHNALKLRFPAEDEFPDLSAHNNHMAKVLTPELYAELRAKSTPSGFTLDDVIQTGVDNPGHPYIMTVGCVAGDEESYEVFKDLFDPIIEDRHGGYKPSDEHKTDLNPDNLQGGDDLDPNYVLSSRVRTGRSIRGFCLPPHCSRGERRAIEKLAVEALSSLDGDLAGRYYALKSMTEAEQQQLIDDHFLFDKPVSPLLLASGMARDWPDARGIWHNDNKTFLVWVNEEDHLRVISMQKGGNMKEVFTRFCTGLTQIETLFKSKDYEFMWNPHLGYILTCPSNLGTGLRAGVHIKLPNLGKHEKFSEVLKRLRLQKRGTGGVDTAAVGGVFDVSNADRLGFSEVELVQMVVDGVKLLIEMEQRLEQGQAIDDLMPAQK
UniProt P05060: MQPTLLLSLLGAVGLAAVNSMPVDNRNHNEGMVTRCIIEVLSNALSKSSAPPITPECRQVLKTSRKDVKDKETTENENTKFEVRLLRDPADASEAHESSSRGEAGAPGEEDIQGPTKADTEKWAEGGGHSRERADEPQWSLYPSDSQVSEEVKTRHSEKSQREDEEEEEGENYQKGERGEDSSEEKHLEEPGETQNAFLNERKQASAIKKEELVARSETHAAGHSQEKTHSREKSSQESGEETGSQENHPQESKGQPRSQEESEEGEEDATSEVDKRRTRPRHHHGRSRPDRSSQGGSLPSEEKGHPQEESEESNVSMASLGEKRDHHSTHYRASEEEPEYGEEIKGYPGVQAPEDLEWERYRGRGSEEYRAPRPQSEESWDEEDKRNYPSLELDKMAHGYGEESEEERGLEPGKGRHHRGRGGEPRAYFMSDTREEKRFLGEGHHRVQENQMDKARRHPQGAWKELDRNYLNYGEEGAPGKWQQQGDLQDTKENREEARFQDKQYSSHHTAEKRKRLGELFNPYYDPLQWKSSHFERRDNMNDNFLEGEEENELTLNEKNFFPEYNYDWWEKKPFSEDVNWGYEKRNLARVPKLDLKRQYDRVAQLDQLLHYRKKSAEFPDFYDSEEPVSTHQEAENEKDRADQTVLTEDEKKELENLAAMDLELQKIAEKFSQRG
UniProt P11142, whole entry, looked up: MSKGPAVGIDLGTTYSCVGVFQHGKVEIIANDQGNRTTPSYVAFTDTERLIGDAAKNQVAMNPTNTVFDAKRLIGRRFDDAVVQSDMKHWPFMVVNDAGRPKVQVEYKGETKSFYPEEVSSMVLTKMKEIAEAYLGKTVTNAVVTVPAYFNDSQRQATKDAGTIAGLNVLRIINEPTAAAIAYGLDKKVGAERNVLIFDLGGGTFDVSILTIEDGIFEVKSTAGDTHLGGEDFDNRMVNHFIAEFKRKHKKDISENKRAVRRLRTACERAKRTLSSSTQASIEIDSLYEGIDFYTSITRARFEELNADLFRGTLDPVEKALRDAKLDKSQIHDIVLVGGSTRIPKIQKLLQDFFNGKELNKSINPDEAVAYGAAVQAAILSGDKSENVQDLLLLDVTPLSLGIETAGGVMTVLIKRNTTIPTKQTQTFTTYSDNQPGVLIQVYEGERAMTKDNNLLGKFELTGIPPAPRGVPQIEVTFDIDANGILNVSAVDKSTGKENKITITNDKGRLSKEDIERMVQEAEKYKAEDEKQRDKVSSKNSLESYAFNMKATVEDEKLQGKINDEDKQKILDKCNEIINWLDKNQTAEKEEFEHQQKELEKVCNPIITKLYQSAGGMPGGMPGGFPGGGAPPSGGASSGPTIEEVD
UniProt P0C7P4: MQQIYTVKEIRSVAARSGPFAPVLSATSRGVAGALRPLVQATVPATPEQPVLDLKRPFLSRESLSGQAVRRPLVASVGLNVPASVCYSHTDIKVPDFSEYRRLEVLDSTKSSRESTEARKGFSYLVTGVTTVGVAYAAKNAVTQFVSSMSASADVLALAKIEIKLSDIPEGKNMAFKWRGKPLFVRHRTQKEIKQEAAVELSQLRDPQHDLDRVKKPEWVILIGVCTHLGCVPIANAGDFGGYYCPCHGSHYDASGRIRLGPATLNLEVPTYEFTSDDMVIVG

Compound: CN[C@@H]1C[C@H]2O[C@@](C)([C@@H]1OC)n1c3ccccc3c3c4c(c5c6ccccc6n2c5c31)C(=O)NC4 [staurosporine]
Test: log2 fold change of tryptic peptide abundance, ligand vs vehicle (limited proteolysis) (log2 ratio); higher = more trypsin-susceptible (destabilized)
Conditions: ligand concentration: 20 uM; sample: K562 cleared lysate; digestion: 4 min, 22 C (HT-PELSA RT4min, Orbitrap Astral)

Row | Target | log2 fold change
1 | SLC25A5 (peptide sequence: DFLAGGVAAAISK, peptide start residue: 11) (UniProt P05141) | -0.189
2 | NEFH (peptide sequence: SPVKEEEKPQEVK, peptide start residue: 828) (UniProt P12036) | -0.509
3 | PCCB (peptide sequence: ERISLLLDPGSFVESDMFVEHR, peptide start residue: 68) (UniProt P05166) | -0.679
4 | UniProt P0DPI2 (peptide sequence: GGAEVQIFAPDVPQMHVIDHTK, peptide start residue: 73) | -0.329
5 | UniProt P0CG13 (peptide sequence: TRPKPIITSVPK, peptide start residue: 108) | 0.261
6 | LGALS1 (peptide sequence: SFVLNLGKDSNNLCLHFNPR, peptide start residue: 30) (UniProt P09382) | -0.169
7 | GPI (peptide sequence: NLVTEDVMR, peptide start residue: 58) (UniProt P06744) | -0.239
8 | PFKM (peptide sequence: NVLGHMQQGGSPTPFDR, peptide start residue: 657) (UniProt P08237) | 0.234
9 | LYN (peptide sequence: EGFIPSNYVAK, peptide start residue: 110) (UniProt P07948) | -0.299
10 | LDHB (peptide sequence: VIGSGCNLDSAR, peptide start residue: 159) (UniProt P07195) | -0.326
11 | S100A6 (peptide sequence: LMEDLDR, peptide start residue: 56) (UniProt P06703) | -0.279
12 | SLC4A2 (peptide sequence: TSPSSPAPLPHQEATPR, peptide start residue: 169) (UniProt P04920) | -0.47
13 | CNP (peptide sequence: GAFSEEYKR, peptide start residue: 94) (UniProt P09543) | 0.448
14 | POLR3D (peptide sequence: NMPVQLPLAHSGWLFK, peptide start residue: 175) (UniProt P05423) | 0.579
15 | E9PJD7 (peptide sequence: AAEAAEAAAAAAAAGSGKLEER, peptide start residue: 83) (UniProt P0DTL6) | -0.159
16 | ADH1A (peptide sequence: CKAAVLWELK, peptide start residue: 10) (UniProt P07327) | 0.166
17 | FCGR2A (peptide sequence: AAQFEPPGR, peptide start residue: 256) (UniProt P12318) | 0.0663
18 | UniProt P08134 (peptide sequence: HFCPNVPIILVGNKK, peptide start residue: 105) | 0.136
19 | MYC (peptide sequence: KDSGSPNPAR, peptide start residue: 157) (UniProt P01106) | -0.617
20 | EIF4E (peptide sequence: WALWFFKNDKSK, peptide start residue: 43) (UniProt P06730) | 0.354
21 | SPTB (peptide sequence: RVEDQVNVR, peptide start residue: 1423) (UniProt P11277) | 0.497
22 | NR2C1 (peptide sequence: HYGAVTCEGCK, peptide start residue: 124) (UniProt P13056) | 0.432
23 | CKB (peptide sequence: VLTPELYAELR, peptide start residue: 33) (UniProt P12277) | -0.196
24 | UniProt P05060 (peptide sequence: RHPQGAWK, peptide start residue: 458) | -0.154
25 | UniProt P0DMM9 (peptide sequence: SHLPLALLPQTLLDQK, peptide start residue: 107) | 0.075
26 | UniProt P0DMU8 (peptide sequence: RPRECDSPSYQK, peptide start residue: 18) | -0.207
27 | HSPA8 (peptide sequence: ATVEDEKLQGK, peptide start residue: 551) (UniProt P11142) | 0.711
28 | ANXA1 (peptide sequence: KGTDVNVFNTILTTRSYPQLR, peptide start residue: 214) (UniProt P04083) | 0.94
29 | UniProt P0C7P4 (peptide sequence: RLEVLDSTK, peptide start residue: 93) | -0.165

Copied from above (2 entries):
Row | Target | log2 fold change
2 | NEFH (peptide sequence: SPVKEEEKPQEVK, peptide start residue: 828) (UniProt P12036) | -0.509
3 | PCCB (peptide sequence: ERISLLLDPGSFVESDMFVEHR, peptide start residue: 68) (UniProt P05166) | -0.679
